We go through 2 substances from publication PMC12041575.

By UniProt entry, the sequences of proteins in these tests, tags left out.
UniProt Q9NR30: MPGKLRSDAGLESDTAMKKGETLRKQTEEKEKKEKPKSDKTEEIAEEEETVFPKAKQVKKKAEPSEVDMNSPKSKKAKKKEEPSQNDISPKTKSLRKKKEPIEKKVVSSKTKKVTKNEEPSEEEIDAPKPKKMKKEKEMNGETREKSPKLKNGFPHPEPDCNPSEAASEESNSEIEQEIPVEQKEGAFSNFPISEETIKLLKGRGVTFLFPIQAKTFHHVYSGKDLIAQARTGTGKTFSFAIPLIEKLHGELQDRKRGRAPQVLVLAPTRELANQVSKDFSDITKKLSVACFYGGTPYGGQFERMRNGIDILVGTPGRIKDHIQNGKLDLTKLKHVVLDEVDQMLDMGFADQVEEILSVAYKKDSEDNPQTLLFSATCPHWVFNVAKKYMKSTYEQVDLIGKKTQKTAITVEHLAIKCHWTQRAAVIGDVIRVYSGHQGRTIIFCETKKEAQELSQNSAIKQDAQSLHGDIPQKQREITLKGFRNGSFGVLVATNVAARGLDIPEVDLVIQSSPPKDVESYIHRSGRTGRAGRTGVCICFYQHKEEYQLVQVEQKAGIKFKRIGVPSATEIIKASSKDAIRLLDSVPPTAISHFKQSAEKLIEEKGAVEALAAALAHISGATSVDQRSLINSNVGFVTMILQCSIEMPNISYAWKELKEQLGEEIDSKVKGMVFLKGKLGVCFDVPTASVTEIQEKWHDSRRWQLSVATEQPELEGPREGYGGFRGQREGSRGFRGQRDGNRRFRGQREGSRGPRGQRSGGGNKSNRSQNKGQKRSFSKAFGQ
UniProt Q92769: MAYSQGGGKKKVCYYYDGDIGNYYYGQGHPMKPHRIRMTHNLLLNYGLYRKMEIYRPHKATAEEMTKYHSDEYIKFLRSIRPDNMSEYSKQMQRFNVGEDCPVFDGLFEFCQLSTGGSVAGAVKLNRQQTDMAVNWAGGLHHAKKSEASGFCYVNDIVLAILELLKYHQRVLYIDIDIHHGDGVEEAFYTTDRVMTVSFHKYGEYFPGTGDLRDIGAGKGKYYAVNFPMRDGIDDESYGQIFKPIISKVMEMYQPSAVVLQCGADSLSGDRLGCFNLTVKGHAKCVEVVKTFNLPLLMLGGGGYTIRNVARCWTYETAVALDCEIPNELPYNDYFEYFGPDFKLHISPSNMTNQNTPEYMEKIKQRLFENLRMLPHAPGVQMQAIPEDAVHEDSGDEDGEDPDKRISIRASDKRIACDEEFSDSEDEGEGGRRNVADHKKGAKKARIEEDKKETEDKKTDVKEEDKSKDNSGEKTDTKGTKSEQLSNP
UniProt Q9NRC8: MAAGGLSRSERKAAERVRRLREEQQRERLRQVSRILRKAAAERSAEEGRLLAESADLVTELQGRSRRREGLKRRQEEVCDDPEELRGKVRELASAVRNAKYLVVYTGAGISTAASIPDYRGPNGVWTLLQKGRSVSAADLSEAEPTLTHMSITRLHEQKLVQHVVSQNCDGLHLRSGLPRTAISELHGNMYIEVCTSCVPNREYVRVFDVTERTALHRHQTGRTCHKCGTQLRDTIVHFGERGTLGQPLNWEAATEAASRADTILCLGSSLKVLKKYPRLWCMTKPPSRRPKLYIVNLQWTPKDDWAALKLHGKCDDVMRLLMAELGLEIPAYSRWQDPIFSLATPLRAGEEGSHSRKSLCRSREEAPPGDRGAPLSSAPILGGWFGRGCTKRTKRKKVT

For this test, the target named is DExD-box helicase 21 (DDX21) (human (endogenous in HCT116)) (UniProt Q9NR30). The test is described as follows: affinity purification with mass spectrometry; Co-IP of DDX21 in HCT116 cells; enriched proteins separated and analysed by mass spectrometry (Co-IP/MS).

Results are given in words; binding and its absence hold for the method and conditions named. Binding seen in cells or lysates may run through a third protein. Here binding means that the protein was enriched with, or labelled near, the bait; the list need not be complete.

Consider HDAC2 (from UniProt Q92769 1-488), for which the binding entry was “binds”.
The same measure for “sirtuin 7 (SIRT7) (from UniProt Q9NRC8 1-400)”: “binds”.
